# Experimental data reported in paper PMC4718513.
# By UniProt entry, the sequences of proteins in these tests, tags left out. Where a name states a change or a piece, a line headed by the entry shows the natural chain unless it says otherwise.
# UniProt P54764: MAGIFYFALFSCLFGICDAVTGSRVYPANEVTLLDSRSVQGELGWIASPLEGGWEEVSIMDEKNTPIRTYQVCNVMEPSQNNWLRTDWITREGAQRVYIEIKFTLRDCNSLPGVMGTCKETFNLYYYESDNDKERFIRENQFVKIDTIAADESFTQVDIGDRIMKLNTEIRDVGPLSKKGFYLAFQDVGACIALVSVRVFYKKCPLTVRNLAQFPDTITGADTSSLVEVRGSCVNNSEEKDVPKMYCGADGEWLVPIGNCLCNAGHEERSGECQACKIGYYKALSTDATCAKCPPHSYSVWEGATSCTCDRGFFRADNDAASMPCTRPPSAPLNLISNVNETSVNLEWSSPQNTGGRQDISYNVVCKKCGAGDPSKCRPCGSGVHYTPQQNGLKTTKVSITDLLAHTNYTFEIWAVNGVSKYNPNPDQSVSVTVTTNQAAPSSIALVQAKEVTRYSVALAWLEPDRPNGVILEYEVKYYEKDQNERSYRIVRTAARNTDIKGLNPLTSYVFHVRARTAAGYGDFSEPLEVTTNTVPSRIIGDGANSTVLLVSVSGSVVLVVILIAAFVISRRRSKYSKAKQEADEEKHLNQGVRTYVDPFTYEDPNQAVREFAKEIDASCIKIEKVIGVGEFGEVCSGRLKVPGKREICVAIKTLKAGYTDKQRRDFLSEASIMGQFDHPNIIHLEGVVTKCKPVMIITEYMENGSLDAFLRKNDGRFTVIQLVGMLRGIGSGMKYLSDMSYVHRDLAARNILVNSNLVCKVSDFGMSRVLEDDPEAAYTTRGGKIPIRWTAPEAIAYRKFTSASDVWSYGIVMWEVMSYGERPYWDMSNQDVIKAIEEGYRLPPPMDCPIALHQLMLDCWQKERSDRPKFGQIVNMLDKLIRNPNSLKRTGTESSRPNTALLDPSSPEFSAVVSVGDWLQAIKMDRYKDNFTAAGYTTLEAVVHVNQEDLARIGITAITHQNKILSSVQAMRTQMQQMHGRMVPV
# UniProt Q9UF33: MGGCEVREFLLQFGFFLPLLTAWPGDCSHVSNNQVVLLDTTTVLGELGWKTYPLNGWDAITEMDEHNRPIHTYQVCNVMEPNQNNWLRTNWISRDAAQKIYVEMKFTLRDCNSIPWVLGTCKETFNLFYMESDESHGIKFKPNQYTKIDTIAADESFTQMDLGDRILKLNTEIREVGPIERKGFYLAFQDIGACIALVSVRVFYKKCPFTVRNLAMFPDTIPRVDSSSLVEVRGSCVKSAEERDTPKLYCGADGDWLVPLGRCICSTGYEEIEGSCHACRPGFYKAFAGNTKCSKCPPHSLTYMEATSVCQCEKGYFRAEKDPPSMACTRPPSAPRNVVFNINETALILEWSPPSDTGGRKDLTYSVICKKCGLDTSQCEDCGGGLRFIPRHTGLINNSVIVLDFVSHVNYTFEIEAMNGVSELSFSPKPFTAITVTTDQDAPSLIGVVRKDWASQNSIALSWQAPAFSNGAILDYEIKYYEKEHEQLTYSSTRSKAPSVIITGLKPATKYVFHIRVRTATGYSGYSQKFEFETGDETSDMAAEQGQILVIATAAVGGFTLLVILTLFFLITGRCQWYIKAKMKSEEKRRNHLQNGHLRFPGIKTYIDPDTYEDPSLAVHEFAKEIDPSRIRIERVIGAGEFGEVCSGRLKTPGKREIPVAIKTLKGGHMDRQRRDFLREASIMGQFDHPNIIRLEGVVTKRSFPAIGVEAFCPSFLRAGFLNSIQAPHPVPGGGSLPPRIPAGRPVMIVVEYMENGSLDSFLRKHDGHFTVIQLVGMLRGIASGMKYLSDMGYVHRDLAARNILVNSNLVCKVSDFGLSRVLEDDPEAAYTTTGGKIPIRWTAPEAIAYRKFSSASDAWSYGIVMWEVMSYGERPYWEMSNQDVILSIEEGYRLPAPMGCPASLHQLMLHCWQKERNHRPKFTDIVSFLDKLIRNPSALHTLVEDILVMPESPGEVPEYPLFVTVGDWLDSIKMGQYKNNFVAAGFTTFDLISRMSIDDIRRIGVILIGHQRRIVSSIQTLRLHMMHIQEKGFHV
# UniProt Q15375: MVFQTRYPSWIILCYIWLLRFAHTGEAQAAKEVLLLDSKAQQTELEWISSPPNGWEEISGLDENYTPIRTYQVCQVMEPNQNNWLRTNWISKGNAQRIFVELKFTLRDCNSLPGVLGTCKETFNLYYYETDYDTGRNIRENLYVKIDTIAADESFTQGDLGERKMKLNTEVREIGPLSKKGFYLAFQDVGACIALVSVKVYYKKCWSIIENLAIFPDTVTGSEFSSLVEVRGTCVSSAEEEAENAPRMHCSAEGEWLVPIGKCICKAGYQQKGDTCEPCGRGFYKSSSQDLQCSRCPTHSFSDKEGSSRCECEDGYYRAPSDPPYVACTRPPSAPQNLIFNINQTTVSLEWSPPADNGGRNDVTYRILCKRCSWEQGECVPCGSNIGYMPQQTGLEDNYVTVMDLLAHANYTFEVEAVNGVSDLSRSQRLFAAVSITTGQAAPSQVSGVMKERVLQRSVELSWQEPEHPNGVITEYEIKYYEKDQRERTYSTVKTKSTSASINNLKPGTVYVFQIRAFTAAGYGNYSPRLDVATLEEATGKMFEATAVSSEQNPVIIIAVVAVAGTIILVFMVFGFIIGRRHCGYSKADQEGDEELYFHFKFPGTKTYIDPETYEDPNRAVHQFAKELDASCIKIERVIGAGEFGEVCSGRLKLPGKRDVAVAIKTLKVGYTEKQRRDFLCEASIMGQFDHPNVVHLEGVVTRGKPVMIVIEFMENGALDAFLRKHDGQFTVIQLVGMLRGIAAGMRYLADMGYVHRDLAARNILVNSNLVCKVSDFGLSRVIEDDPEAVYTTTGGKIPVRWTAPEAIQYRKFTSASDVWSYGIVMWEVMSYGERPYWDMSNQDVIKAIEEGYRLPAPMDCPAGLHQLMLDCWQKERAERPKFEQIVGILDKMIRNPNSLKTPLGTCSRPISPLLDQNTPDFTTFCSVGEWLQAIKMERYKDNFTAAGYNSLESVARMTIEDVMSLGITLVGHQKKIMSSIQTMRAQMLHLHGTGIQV
# UniProt P29322: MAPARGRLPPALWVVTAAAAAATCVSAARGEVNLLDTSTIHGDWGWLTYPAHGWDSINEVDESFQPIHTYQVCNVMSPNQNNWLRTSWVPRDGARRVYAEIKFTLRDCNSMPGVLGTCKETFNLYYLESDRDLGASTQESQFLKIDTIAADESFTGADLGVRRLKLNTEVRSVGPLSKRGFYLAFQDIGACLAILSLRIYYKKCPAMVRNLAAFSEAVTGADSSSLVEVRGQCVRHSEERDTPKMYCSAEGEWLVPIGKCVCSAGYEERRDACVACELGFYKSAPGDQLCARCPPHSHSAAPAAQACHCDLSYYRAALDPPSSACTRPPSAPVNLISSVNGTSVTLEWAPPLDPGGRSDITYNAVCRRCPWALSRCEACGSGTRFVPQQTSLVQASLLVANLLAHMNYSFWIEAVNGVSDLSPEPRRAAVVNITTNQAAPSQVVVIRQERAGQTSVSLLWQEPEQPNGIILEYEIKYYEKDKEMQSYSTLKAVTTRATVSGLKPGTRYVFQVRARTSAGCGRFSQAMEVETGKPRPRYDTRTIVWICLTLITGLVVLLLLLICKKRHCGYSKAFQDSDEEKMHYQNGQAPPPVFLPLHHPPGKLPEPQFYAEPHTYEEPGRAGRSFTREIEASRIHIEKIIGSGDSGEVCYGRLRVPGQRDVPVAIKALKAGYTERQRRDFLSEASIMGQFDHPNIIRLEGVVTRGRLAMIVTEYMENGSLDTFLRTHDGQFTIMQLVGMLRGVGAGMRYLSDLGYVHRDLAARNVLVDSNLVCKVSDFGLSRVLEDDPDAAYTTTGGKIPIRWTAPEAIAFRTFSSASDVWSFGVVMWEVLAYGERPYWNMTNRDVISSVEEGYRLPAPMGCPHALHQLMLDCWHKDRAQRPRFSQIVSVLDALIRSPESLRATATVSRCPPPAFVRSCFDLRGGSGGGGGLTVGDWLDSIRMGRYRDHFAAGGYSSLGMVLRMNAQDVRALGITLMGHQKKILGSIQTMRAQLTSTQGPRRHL
# These are yes or no findings as the source states them, for the method shown. For part of these data: A result given as binding can be weak or reduced; the word gives no strength.
# Target: T1, VAPB coiled-coil domain, CCD(152–195) (human) (UniProt O95292)
# T1 sequence (chain, 15N-labelled): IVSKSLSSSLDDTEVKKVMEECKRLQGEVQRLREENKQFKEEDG
# Assay: NMR titration; 1H-15N HSQC of 15N-labelled VAPB protein (50 uM) with unlabelled NS5B or Eph protein added at different molar ratios (increment 0.5 for C-linker and Eph); 10 mM phosphate buffer pH 6.8, 25 C, 800 MHz; CSD tracings fitted with a one binding site model for residue-specific Kd; both purified
row,Substance,binding
1,C-His-tagged NS5B(1–570) (Hepatitis C virus genotype 1b strain S1) (domain or fragment),no binding
2,N-His-tagged NS5B(1–570) (Hepatitis C virus genotype 1b strain S1) (domain or fragment),no binding

# Target: VAPB-MSP domain, MSP(1–125) (human) (UniProt O95292)
# Assay: as above
row,Substance,binding
1,EphA4 ligand binding domain (LBD) (from UniProt P54764) (domain or fragment),binds weakly
2,EphA6 ligand binding domain (LBD) (from UniProt Q9UF33) (domain or fragment),binds weakly
3,EphA7 ligand binding domain (LBD) (from UniProt Q15375) (domain or fragment),binds weakly
4,EphA8 ligand binding domain (LBD) (from UniProt P29322) (domain or fragment),binds weakly
